Patent US20240084003A1
Positions count from the first letter of the chain named. No constants are given. Whether binding was seen depends on the method and setting. Some entries that bind do so weakly or less than the wild type. For some of these results: Sequences can lack the tags named with a protein.

What was measured:
[1] = target: T1, monkey CD22 protein (ACROBiosystems, SI2-R52Ha) (monkey (rhesus monkey in paragraph 148)) (UniProt H9G1X2); test: ELISA, monkey CD22-ECD-His coated
T1 sequence: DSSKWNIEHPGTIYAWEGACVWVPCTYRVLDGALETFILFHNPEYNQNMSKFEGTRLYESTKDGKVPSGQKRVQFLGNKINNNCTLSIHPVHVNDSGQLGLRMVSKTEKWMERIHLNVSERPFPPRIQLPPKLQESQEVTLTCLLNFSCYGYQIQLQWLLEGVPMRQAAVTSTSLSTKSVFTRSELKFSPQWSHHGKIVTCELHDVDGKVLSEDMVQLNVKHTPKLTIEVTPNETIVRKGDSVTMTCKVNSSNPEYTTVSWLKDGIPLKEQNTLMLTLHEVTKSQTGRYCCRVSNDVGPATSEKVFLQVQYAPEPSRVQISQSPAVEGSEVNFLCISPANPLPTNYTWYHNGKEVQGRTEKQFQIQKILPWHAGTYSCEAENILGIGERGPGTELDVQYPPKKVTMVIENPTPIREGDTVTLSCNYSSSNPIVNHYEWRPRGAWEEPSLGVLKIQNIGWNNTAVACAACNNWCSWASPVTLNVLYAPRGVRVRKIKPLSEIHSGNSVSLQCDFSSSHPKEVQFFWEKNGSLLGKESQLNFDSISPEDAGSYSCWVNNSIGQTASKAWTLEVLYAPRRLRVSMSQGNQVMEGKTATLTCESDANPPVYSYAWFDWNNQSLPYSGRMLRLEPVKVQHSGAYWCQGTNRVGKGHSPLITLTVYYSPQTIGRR

[2] = target: T1, monkey CD22 protein (ACROBiosystems, SI2-R52Ha) (monkey (rhesus monkey in paragraph 148)); test: ELISA, coated monkey CD22
[3] = target: T2, rhesus monkey CD22-ECD-His protein (rhesus monkey) (UniProt H9G1X2); test: SPR (Biacore), antibody captured on Protein A chip, rhesus CD22 in solution
T2 sequence: T1 sequence

B1: HA22-hIgG1 (antibody, V domains shown)
VH: EVQLVESGGGLVKPGGSLKLSCAASGFAFSIYDMSWVRQTPEKCLEWVAYISSGGGTTYYPDTVKGRFTISRDNAKNTLYLQMSSLKSEDTAMYYCARHSGYGTHWGVLFAYWGQGTLVTVSA
VL: DIQMTQTTSSLSASLGDRVTISCRASQDISNYLNWYQQKPDGTVKLLIYYTSILHSGVPSRFSGSGSGTDYSLTISNLEQEDFATYFCQQGNTLPWTFGCGTKLEIKR
binding [1]: binds

B2: F1.105.11 (antibody, human IgG1, kappa, V domains shown)
VH: EVQLQQSGPVLVKPGASVKMSCKASGYTFSDYFMNWVKQSHGKSLEWIGIINSYSGGTSYNQKFKGKATLTVDKSSSTAYMELNSLTSEDSAVYYCARWMDYWGQGTSVTVSS
VL: DVQITQSPSYLAASPGETITINCRTSESISKHLAWYQEKPGKTNKLLIYSGSTLQSGIPSRFSGSGSGTDFTLTISSLEPEDFAMYYCQQHNEYPWTFGGGTKLEIKR
binding [2]: binds
binding [1]: binds

B3: F1.267.9 (antibody, human IgG1, kappa, V domains shown)
VH: EVQLQQSGPVLVKPGASVKMSCKASGYTFTDFYMNWAKQSHGKSLEWVGVINPYNGGINYNQKFKGKATLTVDKSSSTAYMEFNSLTSEDSAVYYCARRMEYHAMDYWGQGTSVTVSS
VL: DIVLTQSPASLAVSLGQRATISCRASESVDNYGFDFIHWYQQKPGQPPKLLIYRASNLESGIPARFSGSGSRPDFTLTINPVETDDVATYYCQQSIKDPWTFGGGTKLEIKR
binding [2]: binds
binding [1]: binds

B4: F1.224.1 (antibody, human IgG1, kappa, V domains shown)
VH: EVLLHQSGPELVKPGASVKISCKASGYTFTDFNMDWVRQRHGQSLEWIGDVNPNNGGTIYNQKFKGKATLTVDKSSSTVYMDLRSLTSDDTAVYYCVRLGTSDYGEAWFISWGQGTVVTVSA
VL: DIVLTQSPASLAVSLGQRATISCRASQSVSTPRYSFMHWYQQKPGQPPKLLIKYASNLESGFPARFTGSGSGTDFTLNIHPVEEEDTAAYYCQQSWAIPWTFGGGTKLEIKR
binding [2]: binds
binding [1]: binds

B5: F1.250.16 (antibody, human IgG1, kappa, V domains shown)
VH: QVQLQQSGAEQVKPGASVKMSCKASGYTFTTYPIEWMKQNHGESLDWIGNIHPYNDDTEYNEKFKGKATLTVEKSSNTVFLELSRLTSDDSAVYYCVRGDYYNSRYWYFDVWGTGTTVTVSS
VL: DIVMTQSQKFMSTTVGDRVSITCKAGQNVRTAVAWYQQKPGQSPKLLIYSASTRYIGVPERFTGSGSGTDFTLTITNMQSEDLADYFCQQYSSFPLTFGTGTKLELKR
binding [2]: binds
binding [1]: binds

B6: F1.120.15 (antibody, human IgG1, kappa, V domains shown)
VH: QVQLQQSGPELVKPGASVKISCKASGNAFSNSWMNWVKQRPGKGLEWIGRVYSEDGDTQYNGKFRDKATLTADRSTSTAYMQLSSLTSEDSAVYFCARWLIYYGTYGAMDYWGQGTSVTVSS
VL: B1 VL with S30N, Q37H, Y50F, I53R, L54P, H55Y, F83I, C100G
binding [2]: binds
binding [1]: binds

B7: F1.216.2 (antibody, human IgG1, kappa, V domains shown)
VH: QVQLQQSGPEVVRPGASVKISCKASGYAFSSSWMNWMKQRPGKALEWIGRIYPGDGDTNYSGEFKVKATLTADKSSSTAYMQLSSLTSEDSAVYFCAREGSYYSNPWYFDYWGQGTTLTVSS
VL: DVLVTQTPLSLPVSLGDQASISCRSSQSIVQSNGDTYLEWYLQKPGQSPKLLIYKVSNRFSGVPDRFSGSGSGTDFTLKISRVEAEDLGVYYCFQGSHVPFTFGSGTKLEIKR
binding [2]: binds
binding [1]: binds

B8: F1.200.11 (antibody, human IgG1, kappa, V domains shown)
VH: QNQLVQSGPELKKPGETVKISCKASGYTFTTAGMQWVQKMPGKGFKWIGWINTLSGEPKYAEDFKGRFAFSLETSATTAYLQISNLKNEDTATYFCARAYYSNLYWYFDVWGTGTTVTVSS
VL: DIVMTQSQKFMSTTVGDRVTITCKASQNVVTAVAWYQQKPGQSPKVLIYSASNRYSGVPDRFTGSGSGTDFTLTISNMHSEDLANYFCHQYSSYPFTFGSGTKLEIKR
binding [2]: binds
binding [1]: binds

B9: F1.192.1 (antibody, human IgG1, kappa, V domains shown)
VH: AVQLQQSGVELVRPGASVKLSCTGSDFNIKEDYIHWVKQRPEQGLEWIGWIDPENGDTEYASKFQGKATITADTSSNTAYLQLSSLTSEDTAVYYCATYGSLDYWGQGTTLTVSS
VL: DIKMTQSPSSMYAFLGERVTITCKASQGINSFLTWFQQKPGKSPKTLIYRANRLVDGVPSRFSGSGSGQDYSLTISSLEYEDVGIYYCLQYDEFPRTFGGGTKLEIKR
binding [2]: binds
binding [1]: binds

B10: F1.172.13 (antibody, human IgG1, kappa, V domains shown)
VH: QVTLKESGPGILQSSQTLSLTCSFSGFSLSTSGMGVSWIRQPSGKGLEWLAHIYWDDDKRYNPSLKSRLTISKDTSRNQVFLKITSVDTADTATYYCARAPPPNWDEYYFDYWGQGTTLTVSS
VL: DIQMTQSPASLSASVGETVTITCRASGNIHNSLAWYQQKQGKSPQLLVHNAKTLADGVPSRFSGSGSGTQYSLKINSLQPEDFGSYYCQHFWSTPPFGGGTKLEIKR
binding [2]: binds
binding [1]: binds

B11: F1.17.1 (antibody, human IgG1, kappa, V domains shown)
VH: QVQLKESGPGLVAPSQSLSITCTVSGFSLSRYTVHWVRQPPGKGLEWLGMIWGGGSTDYNSALKSRLSISKDNSKSQVFLKMNSLQTDDTAMYYCARPHDFDAGGFAYWGQGTLVTVSA
VL: QIVLTQSPAILSTSPGEKVTMTCSASSRVNYMYWYQQKPGSSPRLLIYDTSNLASGVPVRFSGSGSGTSYSLTISRMEAEDAATYYCQQWTSYPLTFGAGTKLELKR
binding [2]: binds
binding [1]: binds

B12: F2.173.9 (antibody, human IgG1, lambda, V domains shown)
VH: EVQLVESGGDLVKPGESLKLSCEASGFTFSNYAMSWVRQTPDRRLEWVATISSIGSFTYYSDSVKGRFTISRDNVKSTLHLQMNNLKSGDTAIYFCARLGVYFDSWGQGTTLTVSS
VL: QLVLTQSSSASFSLGASAKLTCTLSSQHSTYTIEWYQQQPHKPPKFVMEIKKDGSHYTGDGIPDRFSGSSSGADRYLSISNIQPEDETIYICGVSDMIKDQFVYVFGGGTKVTVLG
binding [2]: binds
binding [1]: binds

B13: F2.55.1 (antibody, human IgG1, lambda, V domains shown)
VH: QVTLKESGPGILQPSQTLSLTCSFSGFSLSTFPLGVGWIRQPSGKGLEWLAHVWWNDDDYYNPALKSRLTISKDTSNTRVFLSVASVDTAETATYYCARLNWDRWYFDVWGTGTTVTVSS
VL: QLVLTQSSSASFSLGASAKLTCTLSSQHSAYTVEWYQQQPLKPPKYVMELKKDGSHSTGDGIPDRFSGSSSGADRYLSISNIQPEDEAIYICGVGDTVKEQFVFGGGTKVTVLG
binding [3]: binds
binding [2]: binds
binding [1]: binds

B14: F2.151.13 (antibody, human IgG1, lambda, V domains shown)
VH: QVHLQQPGTELMKPGASVKLSCKATGYTFRDYWLEWVKQRPGHGLEWIGEILPGSGNAYYNEKFKGKATFTADTSSNTAYMQLSSLTTEDSAIYYCARVYSNWYFDAWGKGTTVTVSS
VL: QAVVTQESALTTSPGETVTLTCRSSTGAVTTSNYANWVQEKPDHLFTGLIGGTNNQAPGVPARFSGSLIGDKAALTISGAQTEDEAIYFCALWFSNHWVFGGGTKLTVLG
binding [2]: binds
binding [1]: binds
